Experimental data reported in article PMC12867750.

Assays:
[1] = biological target: T1, N-terminally truncated SLN1 protein (∆SLN1) (barley (Hordeum vulgare)) (UniProt Q8W127); test: two-hybrid; pairwise tests in MaV203 yeast; growth spotted on SD-Leu-Trp-His with 50 and 100 mM 3-AT and on SD-Leu-Trp-Ura, 30 °C for 72 h, three biological replicates
T1 sequence: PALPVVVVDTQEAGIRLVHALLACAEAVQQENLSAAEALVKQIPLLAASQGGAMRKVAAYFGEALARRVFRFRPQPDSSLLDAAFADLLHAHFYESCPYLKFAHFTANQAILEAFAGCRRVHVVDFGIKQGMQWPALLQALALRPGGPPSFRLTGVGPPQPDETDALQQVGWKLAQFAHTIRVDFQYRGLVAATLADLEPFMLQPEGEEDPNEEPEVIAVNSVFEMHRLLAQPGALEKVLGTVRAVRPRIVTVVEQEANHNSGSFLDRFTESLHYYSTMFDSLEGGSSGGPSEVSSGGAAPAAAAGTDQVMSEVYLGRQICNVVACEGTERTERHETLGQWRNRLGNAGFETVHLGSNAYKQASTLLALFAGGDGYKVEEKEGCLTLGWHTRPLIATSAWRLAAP

[2] = biological target: T2, full-length RHT-D1, BiFC fusion (wheat (Triticum aestivum)) (UniProt Q9ST59); test: split reporter; BiFC in N. benthamiana leaves infiltrated with A. tumefaciens GV3101, confocal microscopy after 3 d, DAPI staining; signal in the nucleus
T2 sequence: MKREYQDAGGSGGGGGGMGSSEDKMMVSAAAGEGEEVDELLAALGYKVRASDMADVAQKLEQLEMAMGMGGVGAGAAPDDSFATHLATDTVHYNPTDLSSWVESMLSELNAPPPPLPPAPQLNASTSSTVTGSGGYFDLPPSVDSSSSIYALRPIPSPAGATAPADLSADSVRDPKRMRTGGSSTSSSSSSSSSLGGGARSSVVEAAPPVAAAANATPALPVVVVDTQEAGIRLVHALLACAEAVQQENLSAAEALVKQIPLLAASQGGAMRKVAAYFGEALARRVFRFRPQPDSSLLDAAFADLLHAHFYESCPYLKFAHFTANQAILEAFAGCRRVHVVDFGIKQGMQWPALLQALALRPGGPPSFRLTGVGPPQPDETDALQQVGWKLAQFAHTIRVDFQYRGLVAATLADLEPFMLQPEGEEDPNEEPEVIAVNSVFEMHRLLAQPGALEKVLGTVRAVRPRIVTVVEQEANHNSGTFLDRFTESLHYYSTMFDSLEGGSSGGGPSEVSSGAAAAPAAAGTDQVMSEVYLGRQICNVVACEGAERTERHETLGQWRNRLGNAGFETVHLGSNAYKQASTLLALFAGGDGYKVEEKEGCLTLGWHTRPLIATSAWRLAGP

binding [1]	binding [2]	Substance
binds	–	HvSDW3 G110E (sdw3e) (barley (Hordeum vulgare))
binds	–	HvSDW3 L404F (sdw3g) (barley (Hordeum vulgare))
binds	–	HvSDW3 (SEMI-DWARF 3), full-length HORVU.MOREX.r3.2HG0131300 protein (from UniProt F2D0L0)
–	binds	full-length IDD5-A1, BiFC fusion (wheat (Triticum aestivum))

Results are given in words; binding and its absence hold for the method and conditions named. Binding can be weak; no strength is given. For some of these results: Binding seen in cells or lysates may run through a third protein. For some of these results: Where a sequence is shown, tags or fusion partners need not be part of it.
